At least one compound was matched to its structure with a doubt left.
Assays:
[1] = tested on: gerbil model with global ischemia reperfusion injury; assay: Morris water maze test (cerebral ischemia); assay type: in vivo; settings: NsTyr-2K 30 and 60 mg/kg
Text: (§1) Taking N-stearoyl amino acid potassium NsTyr-2K as an example, a gerbil model with global ischemia reperfusion injury was used to assess the protective role of NsTyr-2K against neurobehavioral disorder caused by cerebral ischemia-reperfusion injury by examining the changing behavioral indexes such as spatial, learning and cognitive functions in the perspective of overall animals during passive dark avoidance test and Morris water maze test.
Up to day 4, for normal animals their latency fell to 29.8+/−12.55 s, and their swimming distance to 3,216.5+/−1,026.46 cm. From day 1 to day 2, there was no evident difference in the average latency before reaching the platform and the swimming distance prior to going onto the platform between the ischemia group of gerbils and any of the other groups. As training sessions increased, the latency and swimming distance of each group of gerbils before reaching the platform was shortened. The gap between the ischemia group and any of the other groups began to widen and reached the record on day 4.

[2] = tested on: gerbil model with global ischemia reperfusion injury; assay: Dark avoidance test; assay type: in vivo; settings: compared with the ischemia group; NsTyr-2K 15, 30, 60 mg/kg; nimotop positive control
Text: as §1
Dark avoidance test was used to evaluate the effects of NsTyr-2K influence on animal learning and memory abilities.

COCCOC(=O)C1=C(C)NC(C)=C(C(=O)OC(C)C)C1c1cccc([N+](=O)[O-])c1 (stereo not shown) [nimotop, reference compound]
time percentage and swimming distance percentage in the first quadrant (probe test) ([1]; day 5, platform removed, against ischemia group, nimotop control): statistical difference | period before finding the underwater platform and swimming distance ([1]; days 3 and 4, compared with the ischemia group, nimotop positive control): a shortened period before finding the underwater platform and a shortened swimming distance | error counts within 5 min [2]: much fewer error counts within 5 min | latency [2]: much prolonged latency

Reference: US9914698B2, “Stearoyl amino acid salt and preparation method and application thereof” (Shanghai Jiaotong University School of Medicine, priority 2014, dated 2018)
